Measured values taken from patent US20110251090A1.
Results are given in words; binding and its absence hold for the method and conditions named. In cells and extracts the contact can be indirect. Some binding calls cover weakened binding; strength is not graded here. Tags and fused reporters may be left off the sequences shown.

Amino acid sequences for entries named in this document (tags omitted).
UniProt Q8IZL8: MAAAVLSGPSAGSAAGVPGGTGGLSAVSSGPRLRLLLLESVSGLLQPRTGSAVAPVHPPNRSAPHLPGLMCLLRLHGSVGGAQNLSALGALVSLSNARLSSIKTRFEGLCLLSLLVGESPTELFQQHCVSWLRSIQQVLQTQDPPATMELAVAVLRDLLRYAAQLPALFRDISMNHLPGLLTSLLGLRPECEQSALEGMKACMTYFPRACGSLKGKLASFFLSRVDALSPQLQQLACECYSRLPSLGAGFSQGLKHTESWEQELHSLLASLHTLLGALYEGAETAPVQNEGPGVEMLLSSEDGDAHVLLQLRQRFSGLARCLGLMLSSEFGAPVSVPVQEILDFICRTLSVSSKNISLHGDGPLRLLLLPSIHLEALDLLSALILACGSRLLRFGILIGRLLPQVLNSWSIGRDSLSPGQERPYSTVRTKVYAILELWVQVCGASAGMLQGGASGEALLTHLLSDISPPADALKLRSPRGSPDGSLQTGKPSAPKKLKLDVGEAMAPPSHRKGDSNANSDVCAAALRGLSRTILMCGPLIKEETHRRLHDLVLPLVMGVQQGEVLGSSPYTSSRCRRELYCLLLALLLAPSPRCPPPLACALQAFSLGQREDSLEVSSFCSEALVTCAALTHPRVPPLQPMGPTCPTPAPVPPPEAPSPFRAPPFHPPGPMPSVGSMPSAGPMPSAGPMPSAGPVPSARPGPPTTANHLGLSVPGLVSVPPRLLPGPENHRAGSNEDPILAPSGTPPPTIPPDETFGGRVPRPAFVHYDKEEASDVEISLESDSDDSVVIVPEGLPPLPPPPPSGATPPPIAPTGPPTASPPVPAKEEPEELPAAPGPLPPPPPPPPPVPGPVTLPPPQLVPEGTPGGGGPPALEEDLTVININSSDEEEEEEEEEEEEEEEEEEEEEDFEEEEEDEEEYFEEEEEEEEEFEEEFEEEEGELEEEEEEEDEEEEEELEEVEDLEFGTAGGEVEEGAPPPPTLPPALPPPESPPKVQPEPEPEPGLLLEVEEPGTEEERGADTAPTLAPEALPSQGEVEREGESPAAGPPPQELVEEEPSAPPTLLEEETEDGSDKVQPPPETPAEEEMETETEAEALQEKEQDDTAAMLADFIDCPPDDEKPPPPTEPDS

Target: PELP1-HA (human) (UniProt Q8IZL8)
Assay: co-immunoprecipitation from co-transfected COS-7 cells, western blot with anti-Flag antibody (FIG. 8A right)

B1: LAS1L-Flag (protein, not shown: small tags and cut ends)
chain: MSWESGAGPGLGSQGMDLVWSAWYGKCVKGKGSLPLSAHGIVVAWLSRAEWDQVTVYLFCDDHKLQRYALNRITVWRSRSGNELPLAVASTADLIRCKLLDVTGGLGTDELRLLYGMALVRFVNLISERKTKFAKVPLKCLAQEVNIPDWIVDLRHELTHKKMPHINDCRRGCYFVLDWLQKTYWCRQLENSLRETWELEEFREGIEEEDQEEDKNIVVDDITEQKPEPQDDGKSTESDVKADGDSKGSEEVDSHCKKALSHKELYERARELLVSYEEEQFTVLEKFRYLPKAIKAWNNPSPRVECVLAELKGVTCENREAVLDAFLDDGFLVPTFEQLAALQIEYEDGQTEVQRGEGTDPKSHKNVDLNDVLVPKPFSQFWQPLLRGLHSQNFTQALLERMLSELPALGISGIRPTYILRWTVELIVANTKTGRNARRFSAGQWEARRGWRLFNCSASLDWPRMVESCLGSPCWASPQLLRIIFKAMGQGLPDEEQEKLLRICSIYTQSGENSLVQEGSEASPIGKSPYTLDSLYWSVKPASSSFGSEAKAQQQEEQGSVNDVKEEEKEEKEVLPDQVEEEEENDDQEEEEEDEDDEDDEEEDRMEVGPFSTGQESPTAENARLLAQKRGALQGSAWQVSSEDVRWDTFPLGRMPGQTEDPAELMLENYDTMYLLDQPVLEQRLEPSTCKTDTLGLSCGVGSGNCSNSSSSNFEGLLWSQGQLHGLKTGLQLF
With B1 the binding was “binds”.
